Among the data in paper PMC8317666 (Chemical Science, 2021) are step yield values, retold here.

Non-standard residues stand in square brackets, D forms with d. Dha = C=C(N)C(=O)O

This data set is described as follows: general procedure: Fmoc solid-phase peptide synthesis. The following applies: late stage modification step.

Regarding Ac-GP[Dha]F-NH2, the step yield amounted to 51.2%.

H-G[Dha]HWSYGMRPK-OH: the step yield amounted to 22.7%.
